Laboratory results from the supplement of paper PMC10849652.
This is one part of the list.

Protein sequences, listed by entry. Tags and fused reporters are not part of them. Lines headed by an entry give the natural chain unless they say otherwise; changes in a name come on top.
UniProt Q10471: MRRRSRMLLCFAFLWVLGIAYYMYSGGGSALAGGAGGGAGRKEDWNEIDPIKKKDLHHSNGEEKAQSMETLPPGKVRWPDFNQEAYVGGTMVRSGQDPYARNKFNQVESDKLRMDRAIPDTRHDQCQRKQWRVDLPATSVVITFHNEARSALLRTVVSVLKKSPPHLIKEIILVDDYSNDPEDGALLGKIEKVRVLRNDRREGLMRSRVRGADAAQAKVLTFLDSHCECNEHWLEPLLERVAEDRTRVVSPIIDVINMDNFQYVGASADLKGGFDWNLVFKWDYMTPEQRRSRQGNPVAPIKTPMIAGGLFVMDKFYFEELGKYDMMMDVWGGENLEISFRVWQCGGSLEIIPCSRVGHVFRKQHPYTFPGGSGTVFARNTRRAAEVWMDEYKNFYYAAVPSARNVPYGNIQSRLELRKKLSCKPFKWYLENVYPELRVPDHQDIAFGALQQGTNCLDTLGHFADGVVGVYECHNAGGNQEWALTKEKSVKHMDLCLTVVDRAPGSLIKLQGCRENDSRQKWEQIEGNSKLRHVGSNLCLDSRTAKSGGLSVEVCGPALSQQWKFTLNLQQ
UniProt P35637: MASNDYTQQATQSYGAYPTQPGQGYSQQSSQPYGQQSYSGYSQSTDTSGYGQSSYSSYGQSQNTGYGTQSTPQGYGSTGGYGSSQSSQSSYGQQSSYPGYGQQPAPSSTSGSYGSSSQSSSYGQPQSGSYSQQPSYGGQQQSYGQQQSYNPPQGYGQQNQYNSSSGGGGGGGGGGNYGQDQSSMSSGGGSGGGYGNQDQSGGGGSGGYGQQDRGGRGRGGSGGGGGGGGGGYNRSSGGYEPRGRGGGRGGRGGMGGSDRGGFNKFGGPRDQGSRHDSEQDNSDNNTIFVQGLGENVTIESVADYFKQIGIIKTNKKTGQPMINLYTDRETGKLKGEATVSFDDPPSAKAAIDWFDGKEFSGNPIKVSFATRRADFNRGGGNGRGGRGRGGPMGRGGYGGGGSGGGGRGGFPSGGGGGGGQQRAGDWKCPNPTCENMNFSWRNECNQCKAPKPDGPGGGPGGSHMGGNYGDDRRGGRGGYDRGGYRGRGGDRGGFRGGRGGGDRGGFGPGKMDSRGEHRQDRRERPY
UniProt P11413, whole entry, looked up: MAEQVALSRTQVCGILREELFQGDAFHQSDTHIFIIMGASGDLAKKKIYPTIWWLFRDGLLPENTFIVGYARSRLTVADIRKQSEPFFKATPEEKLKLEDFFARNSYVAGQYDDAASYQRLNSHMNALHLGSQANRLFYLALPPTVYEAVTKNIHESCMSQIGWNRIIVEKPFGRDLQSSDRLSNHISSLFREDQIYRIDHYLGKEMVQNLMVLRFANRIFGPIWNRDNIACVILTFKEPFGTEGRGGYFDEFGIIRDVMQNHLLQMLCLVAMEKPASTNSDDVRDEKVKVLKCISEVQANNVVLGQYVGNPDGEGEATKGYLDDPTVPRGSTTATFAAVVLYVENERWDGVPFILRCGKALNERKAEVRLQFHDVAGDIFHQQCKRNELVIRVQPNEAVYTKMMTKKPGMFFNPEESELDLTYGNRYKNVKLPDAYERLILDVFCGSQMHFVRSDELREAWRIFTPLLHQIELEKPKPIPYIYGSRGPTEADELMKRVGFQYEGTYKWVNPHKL
UniProt Q9UJY5: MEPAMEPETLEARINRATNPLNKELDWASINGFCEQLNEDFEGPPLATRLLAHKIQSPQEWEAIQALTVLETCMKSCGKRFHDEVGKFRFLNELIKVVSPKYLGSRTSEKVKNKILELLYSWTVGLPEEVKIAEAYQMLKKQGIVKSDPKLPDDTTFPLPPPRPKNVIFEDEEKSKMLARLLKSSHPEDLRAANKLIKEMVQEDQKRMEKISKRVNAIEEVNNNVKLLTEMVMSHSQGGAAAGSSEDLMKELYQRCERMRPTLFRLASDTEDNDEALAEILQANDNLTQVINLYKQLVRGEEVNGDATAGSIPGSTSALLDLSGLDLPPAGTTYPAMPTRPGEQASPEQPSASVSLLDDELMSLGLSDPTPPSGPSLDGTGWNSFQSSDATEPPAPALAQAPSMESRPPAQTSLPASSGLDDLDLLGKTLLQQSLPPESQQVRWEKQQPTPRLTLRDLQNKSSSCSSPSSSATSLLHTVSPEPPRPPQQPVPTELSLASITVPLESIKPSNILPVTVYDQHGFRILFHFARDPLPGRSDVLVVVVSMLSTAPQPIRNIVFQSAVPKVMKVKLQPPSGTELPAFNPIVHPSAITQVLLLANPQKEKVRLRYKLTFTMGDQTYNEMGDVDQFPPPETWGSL
UniProt Q14376: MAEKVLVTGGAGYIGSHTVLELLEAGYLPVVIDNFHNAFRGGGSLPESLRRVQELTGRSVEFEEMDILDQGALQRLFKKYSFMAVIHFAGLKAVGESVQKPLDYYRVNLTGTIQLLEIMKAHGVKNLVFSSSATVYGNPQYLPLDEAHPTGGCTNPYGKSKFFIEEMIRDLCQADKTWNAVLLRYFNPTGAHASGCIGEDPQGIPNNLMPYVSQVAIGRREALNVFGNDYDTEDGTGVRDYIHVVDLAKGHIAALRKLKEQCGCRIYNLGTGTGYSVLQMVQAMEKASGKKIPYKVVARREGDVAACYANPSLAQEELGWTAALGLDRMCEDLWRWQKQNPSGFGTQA
UniProt O14976: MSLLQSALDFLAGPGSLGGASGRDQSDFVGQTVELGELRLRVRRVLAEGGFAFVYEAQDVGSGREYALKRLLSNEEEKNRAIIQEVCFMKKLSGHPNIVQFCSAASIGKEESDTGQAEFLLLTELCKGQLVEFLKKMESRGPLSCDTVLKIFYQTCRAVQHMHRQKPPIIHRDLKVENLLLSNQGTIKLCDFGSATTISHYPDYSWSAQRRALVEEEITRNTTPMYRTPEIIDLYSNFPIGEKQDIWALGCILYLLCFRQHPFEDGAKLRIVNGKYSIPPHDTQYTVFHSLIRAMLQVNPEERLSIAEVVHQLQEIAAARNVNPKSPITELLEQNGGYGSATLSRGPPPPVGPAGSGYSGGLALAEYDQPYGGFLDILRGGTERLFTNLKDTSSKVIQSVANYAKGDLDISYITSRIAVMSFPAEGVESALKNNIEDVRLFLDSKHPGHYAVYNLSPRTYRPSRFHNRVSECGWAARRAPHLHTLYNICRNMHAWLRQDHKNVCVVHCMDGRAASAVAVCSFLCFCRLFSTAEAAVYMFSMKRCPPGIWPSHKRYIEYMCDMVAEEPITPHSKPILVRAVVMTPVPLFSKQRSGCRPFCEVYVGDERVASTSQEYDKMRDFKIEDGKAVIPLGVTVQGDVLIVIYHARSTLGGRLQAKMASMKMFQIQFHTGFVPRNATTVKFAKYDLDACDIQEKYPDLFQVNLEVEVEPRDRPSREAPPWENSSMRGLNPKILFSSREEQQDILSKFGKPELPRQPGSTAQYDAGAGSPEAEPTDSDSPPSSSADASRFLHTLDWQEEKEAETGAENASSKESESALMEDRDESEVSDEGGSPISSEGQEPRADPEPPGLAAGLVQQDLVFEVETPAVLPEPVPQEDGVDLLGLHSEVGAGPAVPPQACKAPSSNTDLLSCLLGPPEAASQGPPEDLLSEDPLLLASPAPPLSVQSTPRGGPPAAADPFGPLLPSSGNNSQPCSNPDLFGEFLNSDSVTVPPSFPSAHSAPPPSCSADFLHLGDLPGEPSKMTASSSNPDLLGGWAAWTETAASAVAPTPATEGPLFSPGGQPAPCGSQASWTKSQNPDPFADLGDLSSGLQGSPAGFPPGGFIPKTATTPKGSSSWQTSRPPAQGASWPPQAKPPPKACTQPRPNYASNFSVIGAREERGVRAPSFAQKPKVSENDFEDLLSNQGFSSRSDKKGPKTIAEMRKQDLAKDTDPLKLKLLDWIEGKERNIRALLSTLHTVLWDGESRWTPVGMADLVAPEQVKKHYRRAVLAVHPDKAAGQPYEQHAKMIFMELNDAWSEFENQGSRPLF
UniProt Q6ZNW5: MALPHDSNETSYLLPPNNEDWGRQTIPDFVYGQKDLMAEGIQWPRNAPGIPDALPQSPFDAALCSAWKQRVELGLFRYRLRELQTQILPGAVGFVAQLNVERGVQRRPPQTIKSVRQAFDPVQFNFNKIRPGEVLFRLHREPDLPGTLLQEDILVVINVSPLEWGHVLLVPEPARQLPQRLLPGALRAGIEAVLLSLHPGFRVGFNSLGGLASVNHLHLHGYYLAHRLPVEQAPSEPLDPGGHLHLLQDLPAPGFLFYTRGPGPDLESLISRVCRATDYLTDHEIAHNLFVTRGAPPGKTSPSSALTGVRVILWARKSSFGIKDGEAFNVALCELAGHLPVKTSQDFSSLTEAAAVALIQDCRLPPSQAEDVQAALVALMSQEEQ
UniProt O95166, whole entry, looked up: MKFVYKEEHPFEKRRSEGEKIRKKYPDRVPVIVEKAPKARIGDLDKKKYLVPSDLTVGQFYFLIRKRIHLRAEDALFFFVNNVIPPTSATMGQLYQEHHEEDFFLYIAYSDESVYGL
UniProt Q9H0R8, whole entry, looked up: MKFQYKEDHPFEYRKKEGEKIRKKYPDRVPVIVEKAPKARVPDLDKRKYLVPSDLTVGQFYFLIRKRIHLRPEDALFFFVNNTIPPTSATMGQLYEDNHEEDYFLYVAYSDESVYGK
UniProt Q86YP4: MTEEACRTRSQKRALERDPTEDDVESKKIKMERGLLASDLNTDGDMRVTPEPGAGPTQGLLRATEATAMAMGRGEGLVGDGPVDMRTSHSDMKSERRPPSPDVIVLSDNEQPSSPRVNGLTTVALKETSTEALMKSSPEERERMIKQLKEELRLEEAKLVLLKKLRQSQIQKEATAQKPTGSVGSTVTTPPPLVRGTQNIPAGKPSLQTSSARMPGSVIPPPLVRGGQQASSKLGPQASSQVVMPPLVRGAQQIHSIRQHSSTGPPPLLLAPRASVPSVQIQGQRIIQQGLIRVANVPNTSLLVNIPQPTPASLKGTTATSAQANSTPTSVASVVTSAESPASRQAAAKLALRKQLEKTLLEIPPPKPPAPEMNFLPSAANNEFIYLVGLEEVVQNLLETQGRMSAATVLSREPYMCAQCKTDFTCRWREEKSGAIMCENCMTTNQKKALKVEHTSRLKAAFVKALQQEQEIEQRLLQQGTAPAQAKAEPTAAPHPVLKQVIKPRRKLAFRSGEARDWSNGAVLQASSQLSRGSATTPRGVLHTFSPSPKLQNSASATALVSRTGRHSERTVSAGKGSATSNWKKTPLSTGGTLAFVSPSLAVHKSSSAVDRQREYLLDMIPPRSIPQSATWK
UniProt P51114, whole entry, looked up: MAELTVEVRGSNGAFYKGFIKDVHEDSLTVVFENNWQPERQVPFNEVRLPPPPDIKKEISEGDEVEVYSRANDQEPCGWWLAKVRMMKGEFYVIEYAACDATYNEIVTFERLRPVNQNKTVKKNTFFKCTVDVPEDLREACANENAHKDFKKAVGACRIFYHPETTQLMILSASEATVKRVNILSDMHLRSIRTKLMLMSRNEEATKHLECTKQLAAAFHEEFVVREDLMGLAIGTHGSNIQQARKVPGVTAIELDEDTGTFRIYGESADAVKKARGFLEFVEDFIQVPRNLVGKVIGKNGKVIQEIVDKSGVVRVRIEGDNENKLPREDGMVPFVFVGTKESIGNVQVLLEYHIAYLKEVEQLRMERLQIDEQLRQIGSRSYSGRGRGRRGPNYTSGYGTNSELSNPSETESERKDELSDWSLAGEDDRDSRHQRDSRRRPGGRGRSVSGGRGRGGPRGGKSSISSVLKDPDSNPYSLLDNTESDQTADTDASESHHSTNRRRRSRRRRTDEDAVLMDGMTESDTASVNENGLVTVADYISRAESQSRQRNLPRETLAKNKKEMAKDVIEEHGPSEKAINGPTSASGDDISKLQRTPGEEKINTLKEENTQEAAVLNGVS
UniProt Q9UET6: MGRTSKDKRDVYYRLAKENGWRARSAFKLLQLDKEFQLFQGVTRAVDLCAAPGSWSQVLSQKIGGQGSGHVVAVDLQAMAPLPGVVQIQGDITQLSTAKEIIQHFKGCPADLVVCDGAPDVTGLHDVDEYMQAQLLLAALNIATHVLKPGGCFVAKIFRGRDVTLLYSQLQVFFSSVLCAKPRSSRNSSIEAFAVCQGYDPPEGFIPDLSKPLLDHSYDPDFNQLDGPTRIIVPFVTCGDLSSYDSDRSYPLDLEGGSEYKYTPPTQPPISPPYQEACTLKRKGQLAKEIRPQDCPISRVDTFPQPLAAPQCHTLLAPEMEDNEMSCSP
UniProt P02792: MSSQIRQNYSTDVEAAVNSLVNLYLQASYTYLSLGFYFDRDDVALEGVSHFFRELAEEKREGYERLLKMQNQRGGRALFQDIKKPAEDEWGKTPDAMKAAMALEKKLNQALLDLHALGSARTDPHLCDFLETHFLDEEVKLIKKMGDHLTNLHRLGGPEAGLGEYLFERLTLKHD

What was measured:
Assay in all cases: log2 fold change, soluble protein after heating vs DMSO (PISA); higher = thermal stabilisation; K562 lysate, 10 uM; active = over 0.2 and 3.5 SD of the protein, either way, in both replicates (recomputed)
alvocidib = compound: CN1CC[C@H](c2c(O)cc(O)c3c(=O)cc(-c4ccccc4Cl)oc23)[C@H](O)C1 [alvocidib]
In short: (§1)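 Quantification was by TMTpro 16plex LC-MS/MS with equalised channel sums, applied to the supernatant after 21,000xg for 90 min. Samples were crude K562 extract at 1 mg/mL protein in PBS pH 7.4 with 1 mM MgCl2, treated with 10 μM compound for 30 min, heated for 3 min across 48°C-58°C, pooled and brought to 0.5% NP-40 at 4°C. Values are log-two fold changes in thermal stability relative to solvent controls, from duplicates.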

Tubastatin A = compound: CN1CCc2c(c3ccccc3n2Cc2ccc(C(=O)NO)cc2)C1 [Tubastatin A]
In short: as §1

[1] = compound: CNC(=O)C1=CC=CC=C1NC2=NC(=NC=C2Cl)NC3=C(C=C(C=C3)N4CCOCC4)OC
In short: as §1

defactinib = compound: CNC(=O)c1ccc(Nc2ncc(C(F)(F)F)c(NCc3nccnc3N(C)S(C)(=O)=O)n2)cc1 [defactinib]
In short: as §1

[2] = compound: CNc1nc(-c2ccc3c(N)n[nH]c3c2)cc(N2C[C@@H](C(=O)NC3CCCCC3)CC[C@H]2C)n1
In short: as §1

encorafenib = compound: COC(=O)N[C@@H](C)CNc1nccc(-c2cn(C(C)C)nc2-c2cc(Cl)cc(NS(C)(=O)=O)c2F)n1 [encorafenib]
In short: as §1

[3] = compound: COC(=O)[C@H](CCSC)NC(=O)C1=C(C=C(C=C1)NC[C@H](CS)N)C2=CC=CC=C2
In short: as §1

alisertib = compound: COc1cc(Nc2ncc3c(n2)-c2ccc(Cl)cc2C(c2c(F)cccc2OC)=NC3)ccc1C(=O)O [alisertib]
In short: as §1

[4] = compound: COc1cc2nc(-c3cc(F)ccc3O)nc(N[C@@H]3CNC[C@H]3C(C)(C)O)c2cc1OC
In short: as §1

gefitinib = compound: COc1cc2ncnc(Nc3ccc(F)c(Cl)c3)c2cc1OCCCN1CCOCC1 [gefitinib]
In short: as §1

lapatinib = compound: CS(=O)(=O)CCNCc1ccc(-c2ccc3ncnc(Nc4ccc(OCc5cccc(F)c5)c(Cl)c4)c3c2)o1 [lapatinib]
In short: as §1

pictilisib = compound: CS(=O)(=O)N1CCN(Cc2cc3nc(-c4cccc5[nH]ncc45)nc(N4CCOCC4)c3s2)CC1 [pictilisib]
In short: as §1

crizotinib = compound: C[C@@H](Oc1cc(-c2cnn(C3CCNCC3)c2)cnc1N)c1c(Cl)ccc(F)c1Cl [crizotinib]
In short: as §1

[5] = compound: C[C@H](C1=CC=C(C=C1)C(=O)NC2=C3C=CNC3=NC=C2)N
In short: as §1

duvelisib = compound: C[C@H](Nc1ncnc2nc[nH]c12)c1cc2cccc(Cl)c2c(=O)n1-c1ccccc1 [duvelisib]
In short: as §1

gandotinib = compound: Cc1cc(Nc2cc(CN3CCOCC3)c3nc(C)c(Cc4ccc(Cl)cc4F)n3n2)n[nH]1 [gandotinib]
In short: as §1

tozasertib = compound: Cc1cc(Nc2cc(N3CCN(C)CC3)nc(Sc3ccc(NC(=O)C4CC4)cc3)n2)n[nH]1 [tozasertib]
In short: as §1

doramapimod = compound: Cc1ccc(-n2nc(C(C)(C)C)cc2NC(=O)Nc2ccc(OCCN3CCOCC3)c3ccccc23)cc1 [doramapimod]
In short: as §1

bafetinib = compound: Cc1ccc(NC(=O)c2ccc(CN3CC[C@H](N(C)C)C3)c(C(F)(F)F)c2)cc1Nc1nccc(-c2cncnc2)n1 [bafetinib]
In short: as §1

[6] = compound: Cc1cccc(CC(=O)N2CCc3c2ccc(-c2cn(C)c4ncnc(N)c24)c3F)n1
In short: as §1

Target	log2 fold change (alvocidib)	log2 fold change (Tubastatin A)	log2 fold change [1]	log2 fold change (defactinib)	log2 fold change [2]	log2 fold change (encorafenib)	log2 fold change [3]	log2 fold change (alisertib)	log2 fold change [4]	log2 fold change (gefitinib)	log2 fold change (lapatinib)	log2 fold change (pictilisib)	log2 fold change (crizotinib)	log2 fold change [5]	log2 fold change (duvelisib)	log2 fold change (gandotinib)	log2 fold change (tozasertib)	log2 fold change (doramapimod)	log2 fold change (bafetinib)	log2 fold change [6]
GALNT2 (UniProt Q10471)	inactive: -0.069	inactive: 0.073	inactive: -0.004	inactive: 0.008	inactive: -0.057	inactive: 0.048	inactive: -0.047	inactive: 0.028	inactive: -0.021	inactive: -0.021	inactive: -0.016	inactive: -0.039	inactive: 0.009	inactive: -0.074	inactive: -0.044	active: 0.272	inactive: 0.047	inactive: -0.014	inactive: -0.002	inactive: 0.18
FRRS1 (UniProt Q6ZNA5)	inactive: -0.042	inactive: 0.004	inactive: 0.019	inactive: 0.004	inactive: 0.005	inactive: -0.038	inactive: -0.058	inactive: 0.033	inactive: 0.061	inactive: 0.06	inactive: 0.03	inactive: 0.006	inactive: -0.006	inactive: -0.154	inactive: 0.005	inactive: 0.074	inactive: 0.013	inactive: 0.007	inactive: 0.03	inactive: 0.12
FUS (UniProt P35637)	inactive: 0.046	inactive: 0.095	inactive: 0.028	inactive: -0.01	inactive: 0.06	inactive: -0.008	inactive: -0.029	inactive: 0.019	inactive: 0.014	inactive: 0.034	inactive: 0.024	inactive: -0.004	inactive: 0.021	inactive: 0.117	inactive: -0.027	inactive: -0.023	inactive: -0.014	inactive: -0.05	inactive: 0.06	inactive: -0.082
G6PD isoform 2 (UniProt P11413)	inactive: 0.029	inactive: -0.068	inactive: 0.013	inactive: 0.031	inactive: 0.009	inactive: -0.025	inactive: 0.145	inactive: 0.021	inactive: -0.017	inactive: -0.023	inactive: 0.018	inactive: -0.022	inactive: -0.03	inactive: 0.094	inactive: -0.023	inactive: -0.063	inactive: -0.003	inactive: -0.015	inactive: 0.037	inactive: -0.035
GGA1 isoform 6 (UniProt Q9UJY5)	inactive: 0.007	inactive: 0.067	inactive: -0.006	inactive: 0.015	inactive: -0.03	inactive: 0.015	inactive: -0.01	inactive: -0.015	inactive: -0.007	inactive: 0.003	inactive: 0.002	inactive: -0.054	inactive: -0.011	inactive: 0.01	inactive: 0.017	inactive: 0.012	inactive: -0.008	inactive: 0.007	inactive: -0.053	inactive: -0.021
GADD45GIP1 (UniProt Q8TAE8)	inactive: -0.008	inactive: 0.037	inactive: -0.101	inactive: 0.006	inactive: 0.066	inactive: 0.005	inactive: 0.04	inactive: 0.024	inactive: -0.033	inactive: -0.003	inactive: 0.003	inactive: 0.007	inactive: -0.008	inactive: -0.063	inactive: 0.03	inactive: 0.03	inactive: 0.002	inactive: 0.041	inactive: 0.043	inactive: 0.009
GALE (UniProt Q14376)	inactive: 0	inactive: -0.108	inactive: -0.066	inactive: -0.037	inactive: -0.042	inactive: 0.003	inactive: 0.16	inactive: -0.02	inactive: -0.028	inactive: 0.038	inactive: -0.005	inactive: -0.02	inactive: -0.01	inactive: -0.025	inactive: 0.004	inactive: -0.053	inactive: 0.016	inactive: 0.039	inactive: -0.086	inactive: 0.031
GAK (UniProt O14976)	inactive: 0.31	inactive: -0.244	inactive: 0.672	inactive: 0.165	inactive: 0.239	inactive: 0.138	inactive: -0.17	inactive: -0.056	inactive: 0.183	inactive: 0.256	inactive: -0.136	inactive: 0.062	inactive: 0.023	inactive: 0.138	inactive: 0.011	inactive: 0.09	inactive: -0.058	inactive: -0.09	inactive: 0.394	inactive: -0.152
GDPGP1 (UniProt Q6ZNW5)	inactive: -0.03	inactive: 0.008	inactive: 0.02	inactive: -0.011	inactive: 0.015	inactive: 0.03	inactive: 0.019	inactive: -0.099	inactive: 0.008	inactive: -0.044	inactive: 0.008	inactive: -0.005	inactive: 0.083	inactive: 0.003	inactive: -0.043	inactive: 0.048	inactive: -0.015	inactive: 0.005	inactive: -0.036	inactive: 0.115
GABARAP (UniProt O95166)	inactive: 0.067	inactive: -0.01	inactive: -0.072	inactive: 0.108	inactive: -0.071	inactive: -0.023	inactive: 0.028	inactive: 0.033	inactive: -0.018	inactive: -0.038	inactive: -0.025	inactive: -0.098	inactive: 0.083	inactive: -0.042	inactive: -0.142	inactive: 0.017	inactive: -0.052	inactive: -0.012	inactive: 0.036	inactive: -0.159
GAN (UniProt Q9H2C0)	inactive: -0.03	inactive: -0.006	inactive: 0.012	inactive: -0.02	inactive: 0.013	inactive: 0	inactive: 0.004	inactive: 0.01	inactive: 0.02	inactive: 0.009	inactive: -0.003	inactive: -0.023	inactive: -0.002	inactive: -0.085	inactive: -0.009	inactive: 0.023	inactive: 0.017	inactive: 0.011	inactive: -0.059	inactive: 0.055
GABARAPL1 isoform 2 (UniProt Q9H0R8)	inactive: 0.011	inactive: 0.057	inactive: -0.03	inactive: -0.119	inactive: 0.096	inactive: -0.055	inactive: -0.005	inactive: 0.015	inactive: 0.002	inactive: -0.006	inactive: -0.01	inactive: 0.167	inactive: -0.011	inactive: 0.02	inactive: 0.01	inactive: 0.017	inactive: 0.026	inactive: 0.089	inactive: 0.143	inactive: -0.078
GATAD2A isoform 3 (UniProt Q86YP4)	inactive: -0.028	inactive: -0.045	inactive: 0.015	inactive: 0	inactive: 0.025	inactive: 0.005	inactive: 0.072	inactive: 0.006	inactive: 0.01	inactive: -0.023	inactive: -0.012	inactive: -0.031	inactive: -0.011	inactive: -0.031	inactive: -0.037	inactive: 0.016	inactive: -0.009	inactive: 0.026	inactive: 0.001	inactive: 0.061
FXR1 (UniProt P51114)	inactive: -0.028	inactive: -0.176	inactive: 0.02	inactive: -0.043	inactive: -0.039	inactive: 0.057	inactive: 0.035	inactive: -0.012	inactive: 0.012	inactive: -0.022	inactive: -0.026	inactive: -0.052	inactive: -0.006	inactive: -0.106	inactive: 0.023	inactive: -0.02	inactive: 0.008	inactive: 0.065	inactive: -0.03	inactive: 0.05
FTSJ1 (UniProt Q9UET6)	inactive: 0.003	inactive: -0.038	inactive: 0.049	inactive: -0.021	inactive: -0.016	inactive: -0.025	inactive: 0.089	inactive: 0.004	inactive: 0.005	inactive: -0.001	inactive: 0.01	inactive: -0.002	inactive: -0.051	inactive: 0.051	inactive: -0.009	inactive: -0.088	inactive: -0.064	inactive: 0.03	inactive: 0.041	inactive: -0.052
FTL (UniProt P02792)	inactive: 0.013	inactive: 0.187	inactive: -0.04	inactive: 0.15	inactive: -0.097	inactive: 0.145	inactive: -0.076	inactive: 0.067	inactive: 0.007	inactive: -0.024	inactive: -0.072	inactive: -0.027	inactive: -0.066	inactive: -0.022	inactive: -0.001	inactive: 0.068	inactive: 0.008	inactive: -0.024	inactive: -0.052	inactive: -0.018
